# Data: the supplement of paper PMC8728848
# The other results are listed elsewhere or left out.
# Key:
# Test in all cases: glycan array binding signal (z-score within array); higher = stronger binding
# Conditions in all cases: glycan notation: IUPAC condensed, linker removed
# [1] = molecular target: Fuc(a1-2)Gal(b1-4)GlcNAc(b1-3)Gal(b1-4)GlcNAc(b1-3)Gal(b1-4)GlcNAc
# Outline: (§1)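 Arrays were curated from the Consortium for Functional Glycomics database, 3228 in total, and kept only where the protein sequence was available. Binding is expressed as a within-array Z-score. This score was averaged across arrays of the same protein sequence at different concentrations or buffers and across linkers, and negative values can be read as non-binding.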
# [2] = molecular target: Fuc(a1-2)Gal(b1-4)GlcNAc(b1-3)GalNAc
# Outline: as §1
# [3] = molecular target: Fuc(a1-2)Gal(b1-4)GlcNAc(b1-3)[Fuc(a1-2)Gal(b1-4)GlcNAc(b1-6)]GalNAc
# Outline: as §1
# [4] = molecular target: Fuc(a1-2)Gal(b1-4)GlcNAc(b1-3)[Fuc(a1-3)[Gal(b1-4)]GlcNAc(b1-6)]Gal(b1-4)Glc
# Outline: as §1
# [5] = molecular target: Fuc(a1-2)Gal(b1-4)GlcNAc(b1-6)GalNAc
# Outline: as §1
# [6] = molecular target: Fuc(a1-2)Gal(b1-4)GlcNAc6S
# Outline: as §1
# [7] = molecular target: Fuc(a1-2)Gal(b1-4)[Fuc(a1-3)]GlcNAc
# Outline: as §1
# [8] = molecular target: Fuc(a1-2)Gal(b1-4)[Fuc(a1-3)]GlcNAc(b1-2)Man(a1-3)[Fuc(a1-2)Gal(b1-4)[Fuc(a1-3)]GlcNAc(b1-2)Man(a1-6)]Man(b1-4)GlcNAc(b1-4)[Fuc(a1-6)]GlcNAc
# Outline: as §1
# [9] = molecular target: Fuc(a1-2)Gal(b1-4)[Fuc(a1-3)]GlcNAc(b1-2)[Fuc(a1-2)Gal(b1-4)[Fuc(a1-3)]GlcNAc(b1-4)]Man(a1-3)[Fuc(a1-2)Gal(b1-4)[Fuc(a1-3)]GlcNAc(b1-2)Man(a1-6)]Man(b1-4)GlcNAc(b1-4)GlcNAc
# Outline: as §1
# [10] = molecular target: Fuc(a1-2)Gal(b1-4)[Fuc(a1-3)]GlcNAc(b1-3)Gal(b1-4)[Fuc(a1-3)]GlcNAc
# Outline: as §1
# [11] = molecular target: Fuc(a1-2)Gal(b1-4)[Fuc(a1-3)]GlcNAc(b1-3)Gal(b1-4)[Fuc(a1-3)]GlcNAc(b1-3)Gal(b1-4)[Fuc(a1-3)]GlcNAc
# Outline: as §1
# [12] = molecular target: Fuc(a1-2)Gal(b1-4)[Fuc(a1-3)]GlcNAc(b1-3)GalNAc
# Outline: as §1
# [13] = molecular target: Fuc(a1-2)Gal(b1-4)[Fuc(a1-3)]GlcNAc(b1-3)[Neu5Ac(a2-6)Gal(b1-4)GlcNAc(b1-6)]Gal(b1-4)Glc
# Outline: as §1
# [14] = molecular target: Fuc(a1-2)Gal3S(b1-4)GlcNAc
# Outline: as §1
# [15] = molecular target: Fuc(a1-2)Gal6S(b1-3)GlcNAc
# Outline: as §1
# [16] = molecular target: Fuc(a1-2)Gal6S(b1-3)GlcNAc6S
# Outline: as §1
# Fuc(a1-2)Gal6S(b1-4)Glc = molecular target: Fuc(a1-2)Gal6S(b1-4)Glc
# Outline: as §1
# [17] = molecular target: Fuc(a1-2)Gal6S(b1-4)Glc6S
# Outline: as §1
# Fuc(a1-2)[Gal(a1-3)]Gal = molecular target: Fuc(a1-2)[Gal(a1-3)]Gal
# Outline: as §1
# [18] = molecular target: Fuc(a1-2)[Gal(a1-3)]Gal(b1-3)GalNAc
# Outline: as §1
# [19] = molecular target: Fuc(a1-2)[Gal(a1-3)]Gal(b1-3)GalNAc(b1-3)Gal(a1-4)Gal(b1-4)Glc
# Outline: as §1
# [20] = molecular target: Fuc(a1-2)[Gal(a1-3)]Gal(b1-3)GlcNAc
# Outline: as §1
# [21] = molecular target: Fuc(a1-2)[Gal(a1-3)]Gal(b1-3)GlcNAc(b1-2)Man(a1-3)[Fuc(a1-2)[Gal(a1-3)]Gal(b1-3)GlcNAc(b1-2)Man(a1-6)]Man(b1-4)GlcNAc(b1-4)GlcNAc
# Outline: as §1
# [22] = molecular target: Fuc(a1-2)[Gal(a1-3)]Gal(b1-3)GlcNAc(b1-2)Man(a1-3)[Fuc(a1-2)[Gal(a1-3)]Gal(b1-3)GlcNAc(b1-2)Man(a1-6)]Man(b1-4)GlcNAc(b1-4)[Fuc(a1-6)]GlcNAc
# Outline: as §1
# [23] = molecular target: Fuc(a1-2)[Gal(a1-3)]Gal(b1-3)GlcNAc(b1-3)GalNAc
# Outline: as §1
# [24] = molecular target: Fuc(a1-2)[Gal(a1-3)]Gal(b1-3)GlcNAc(b1-6)GalNAc
# Outline: as §1
# [25] = molecular target: Fuc(a1-2)[Gal(a1-3)]Gal(b1-4)Glc
# Outline: as §1
# [26] = molecular target: Fuc(a1-2)[Gal(a1-3)]Gal(b1-4)GlcNAc
# Outline: as §1
# [27] = molecular target: Fuc(a1-2)[Gal(a1-3)]Gal(b1-4)GlcNAc(b1-2)Man
# Outline: as §1
# [28] = molecular target: Fuc(a1-2)[Gal(a1-3)]Gal(b1-4)GlcNAc(b1-2)Man(a1-3)[Fuc(a1-2)[Gal(a1-3)]Gal(b1-4)GlcNAc(b1-2)Man(a1-6)]Man(b1-4)GlcNAc(b1-4)GlcNAc
# Outline: as §1
# [29] = molecular target: Fuc(a1-2)[Gal(a1-3)]Gal(b1-4)GlcNAc(b1-2)Man(a1-3)[Fuc(a1-2)[Gal(a1-3)]Gal(b1-4)GlcNAc(b1-2)Man(a1-6)]Man(b1-4)GlcNAc(b1-4)[Fuc(a1-6)]GlcNAc
# Outline: as §1
# [30] = molecular target: Fuc(a1-2)[Gal(a1-3)]Gal(b1-4)GlcNAc(b1-3)GalNAc
# Outline: as §1
# [31] = molecular target: Fuc(a1-2)[Gal(a1-3)]Gal(b1-4)GlcNAc(b1-3)[Fuc(a1-2)[Gal(a1-3)]Gal(b1-4)GlcNAc(b1-6)]GalNAc
# Outline: as §1
# [32] = molecular target: Fuc(a1-2)[Gal(a1-3)]Gal(b1-4)GlcNAc(b1-6)GalNAc
# Outline: as §1
# [33] = molecular target: Fuc(a1-2)[Gal(a1-3)]Gal(b1-4)[Fuc(a1-3)]Glc
# Outline: as §1
# [34] = molecular target: Fuc(a1-2)[Gal(a1-3)]Gal(b1-4)[Fuc(a1-3)]GlcNAc
# Outline: as §1
# [35] = molecular target: Fuc(a1-2)[Gal(a1-3)]Gal(b1-4)[Fuc(a1-3)]GlcNAc(b1-3)GalNAc
# Outline: as §1
# [36] = molecular target: Fuc(a1-2)[Gal(a1-4)]Gal(b1-4)GlcNAc
# Outline: as §1
# [37] = molecular target: Fuc(a1-2)[GalNAc(a1-3)]Gal
# Outline: as §1
# [38] = molecular target: Fuc(a1-2)[GalNAc(a1-3)]Gal(b1-3)GalNAc(a1-3)[Fuc(a1-2)]Gal(b1-4)GlcNAc
# Outline: as §1
# [39] = molecular target: Fuc(a1-2)[GalNAc(a1-3)]Gal(b1-3)GalNAc(b1-3)Gal(a1-4)Gal(b1-4)Glc
# Outline: as §1
# [40] = molecular target: Fuc(a1-2)[GalNAc(a1-3)]Gal(b1-3)GlcNAc
# Outline: as §1
# [41] = molecular target: Fuc(a1-2)[GalNAc(a1-3)]Gal(b1-3)GlcNAc(b1-2)Man(a1-3)[Fuc(a1-2)[GalNAc(a1-3)]Gal(b1-3)GlcNAc(b1-2)Man(a1-6)]Man(b1-4)GlcNAc(b1-4)GlcNAc
# Outline: as §1
# [42] = molecular target: Fuc(a1-2)[GalNAc(a1-3)]Gal(b1-3)GlcNAc(b1-2)Man(a1-3)[Fuc(a1-2)[GalNAc(a1-3)]Gal(b1-3)GlcNAc(b1-2)Man(a1-6)]Man(b1-4)GlcNAc(b1-4)[Fuc(a1-6)]GlcNAc
# Outline: as §1
# [43] = molecular target: Fuc(a1-2)[GalNAc(a1-3)]Gal(b1-3)GlcNAc(b1-3)GalNAc
# Outline: as §1
binder,measurement,setting,value
EUL D1A (Oryza sativa) (protein) MFGFGHHHNQAPAAPSDPNQIFKIFCRANENYCLTVRDSAVVLAPVNPKDEHQHWFKDMRFSTKVKDGEGMPAFALVNKATGLAVKHSLGQSHPVKLVPFNPEYEDASVLWTESKDVGKGFRCIRMVNNTRLNLDAFHGDKDHGGVRDGTTVVLWEWCKGDNQSWKILPWGPEAHSSSPGAATACTIGGVPVHTVRVFSAAGEDYCLTVRNGTACLAPKNPRDDYQHWIKDMRHSNKIRDEEGYPAFALVNKVTGEAIKHSTGQGHPVKLVPYNPEYQDESVLWTESKDVGKGFRCIRMVNNIYLNFDAFHGDKDHGGIHDGTEIVLWKWCEGDNQRWKILPWILEQKLISEEDLNSAVDHHHHHH,glycan array binding signal (z-score),[1],0.796
same,glycan array binding signal (z-score),[2],-0.895
same,glycan array binding signal (z-score),[3],-1.1
same,glycan array binding signal (z-score),[4],0.573
same,glycan array binding signal (z-score),[5],1.97
same,glycan array binding signal (z-score),[6],-0.561
same,glycan array binding signal (z-score),[7],0.235
same,glycan array binding signal (z-score),[8],1.27
same,glycan array binding signal (z-score),[9],-1.42
same,glycan array binding signal (z-score),[10],0.132
same,glycan array binding signal (z-score),[11],-1.66
same,glycan array binding signal (z-score),[12],-0.582
same,glycan array binding signal (z-score),[13],-0.735
same,glycan array binding signal (z-score),[14],0.727
same,glycan array binding signal (z-score),[15],0.469
same,glycan array binding signal (z-score),[16],0.73
same,glycan array binding signal (z-score),Fuc(a1-2)Gal6S(b1-4)Glc,-0.295
same,glycan array binding signal (z-score),[17],-0.234
same,glycan array binding signal (z-score),Fuc(a1-2)[Gal(a1-3)]Gal,-0.867
same,glycan array binding signal (z-score),[18],-0.151
same,glycan array binding signal (z-score),[19],-0.417
same,glycan array binding signal (z-score),[20],0.506
same,glycan array binding signal (z-score),[21],0.066
same,glycan array binding signal (z-score),[22],-1.06
same,glycan array binding signal (z-score),[23],-0.79
same,glycan array binding signal (z-score),[24],1.11
same,glycan array binding signal (z-score),[25],-0.693
same,glycan array binding signal (z-score),[26],-0.021
same,glycan array binding signal (z-score),[27],0.55
same,glycan array binding signal (z-score),[28],1.08
same,glycan array binding signal (z-score),[29],0.315
same,glycan array binding signal (z-score),[30],0.848
same,glycan array binding signal (z-score),[31],-0.848
same,glycan array binding signal (z-score),[32],-0.876
same,glycan array binding signal (z-score),[33],-0.815
same,glycan array binding signal (z-score),[34],0.298
same,glycan array binding signal (z-score),[35],-0.037
same,glycan array binding signal (z-score),[36],-0.433
same,glycan array binding signal (z-score),[37],-0.299
same,glycan array binding signal (z-score),[38],-0.028
same,glycan array binding signal (z-score),[39],0.216
same,glycan array binding signal (z-score),[40],-0.152
same,glycan array binding signal (z-score),[41],-0.144
same,glycan array binding signal (z-score),[42],-0.33
same,glycan array binding signal (z-score),[43],0.318

# Part of the list above, tab-delimited:
binder	measurement	setting	value
EUL D1A (Oryza sativa) (protein) MFGFGHHHNQAPAAPSDPNQIFKIFCRANENYCLTVRDSAVVLAPVNPKDEHQHWFKDMRFSTKVKDGEGMPAFALVNKATGLAVKHSLGQSHPVKLVPFNPEYEDASVLWTESKDVGKGFRCIRMVNNTRLNLDAFHGDKDHGGVRDGTTVVLWEWCKGDNQSWKILPWGPEAHSSSPGAATACTIGGVPVHTVRVFSAAGEDYCLTVRNGTACLAPKNPRDDYQHWIKDMRHSNKIRDEEGYPAFALVNKVTGEAIKHSTGQGHPVKLVPYNPEYQDESVLWTESKDVGKGFRCIRMVNNIYLNFDAFHGDKDHGGIHDGTEIVLWKWCEGDNQRWKILPWILEQKLISEEDLNSAVDHHHHHH	glycan array binding signal (z-score)	[13]	-0.735
same	glycan array binding signal (z-score)	[14]	0.727
